Literature values, collected in patent publication US12589086B2, “Compositions and methods for the treatment of primary biliary cholangitis” (Genfit, priority 2020, dated 2026).
At least one compound was matched to its structure with a doubt left.

System: patients with PBC
Details: cited from earlier work

SMILES: C[C@H](CCC(=O)O)[C@H]1CC[C@H]2[C@@H]3[C@@H](O)C[C@@H]4C[C@H](O)CC[C@]4(C)[C@H]3CC[C@]12C [UDCA, ursodeoxycholic acid]
- UDCA-treated patients with a suboptimal response (PBC patients, Ali et al. 2015): up to 40%
- patients in whom ALP remains elevated (patients currently being treated or intolerant to UDCA, Lammers et al. 2014): up to 70%
